Literature values as cited in US11744789B2, “Method for dyeing keratinous material, comprising the use of an organosilicon compound, a colored effect pigment and a sealing reagent III” (Henkel AG & Co. KGaA, priority 2019, dated 2023).

Conditions: 25° C.

SMILES: CCN(Cc1cccc(S(=O)(=O)O)c1)c1ccc(C(=C2C=CC(=[N+](CC)Cc3cccc(S(=O)(=O)O)c3)C=C2)c2ccccc2S(=O)(=O)[O-])cc1 [Acid Blue 9]
- solubility in water: more than 20 % by weight
